Test results as given in PubChem BioAssay AID2551 (National Center for Advancing Translational Sciences (NCATS), 2010).
Hit rate of the full screen: of about 310,000 compounds, about 17,000 (5.5%) were called active. The shares of active, inactive and inconclusive entries below differ from those in the screen. Calls follow the shape of the dose curve; as a rule, active = well fitted inhibition curve with a large enough effect; inconclusive = small, poorly fitted or top-dose-only effect, or effect the other way; inactive = no such curve, though single readings can be large or run the other way. Potencies of inconclusive entries are doubtful fits and often do not repeat.

Amino acid sequences for entries named in this document (tags omitted). A change or cut given only in a name is not applied to a line headed by its entry.
UniProt P51450: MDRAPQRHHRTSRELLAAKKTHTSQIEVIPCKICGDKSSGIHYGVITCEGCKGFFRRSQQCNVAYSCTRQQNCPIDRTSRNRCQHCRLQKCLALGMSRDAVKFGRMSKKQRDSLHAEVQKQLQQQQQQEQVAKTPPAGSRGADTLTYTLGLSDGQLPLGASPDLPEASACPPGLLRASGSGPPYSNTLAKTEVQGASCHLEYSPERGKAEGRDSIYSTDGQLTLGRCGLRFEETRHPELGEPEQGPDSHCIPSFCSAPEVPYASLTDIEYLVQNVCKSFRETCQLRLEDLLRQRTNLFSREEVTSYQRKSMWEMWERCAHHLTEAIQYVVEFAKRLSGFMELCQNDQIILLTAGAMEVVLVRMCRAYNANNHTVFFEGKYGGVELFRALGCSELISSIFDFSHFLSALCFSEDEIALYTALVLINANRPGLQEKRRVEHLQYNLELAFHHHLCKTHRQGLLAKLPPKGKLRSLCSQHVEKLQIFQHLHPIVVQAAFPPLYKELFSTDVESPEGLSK

molecular target: Nuclear receptor ROR-gamma (Mus musculus) (UniProt P51450); assay: qHTS for inhibitors of ROR gamma transcriptional activity; settings: Drosophila S2 Gal4-RORgamma UAS-luciferase reporter, 20 h; activity change, negative = inhibition: at 53.6 µM (top of the series); also: nearly all actives have a fitted effect of over 60% in size
How it was run: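 Stably transfected Drosophila Schneider cells are the test system, with ROR gamma fused to Gal4 and luciferase under UAS control; luminescence is read after 20 hr of 700 uM copper sulfate induction at ambient temperature.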
% is scaled to controls: 0 for no effect and ±100 for the full control effect; potency is read from the fitted curve at half-maximal effect.

Potency, inconclusive:
Cn1cccc1-c1nc2ccc(NC(=O)c3cccs3)cc2[nH]1 5.62 µM [activator, partial curve]
CN(C)CCNC(=O)COc1ccc(C23CC4CC(CC(C4)C2)C3)cc1 28.2 µM [inhibitor, single point]
CC(=O)c1ccc(OC(=O)c2nc(-c3ccccc3)oc2C)cc1 35.5 µM [activator, single point]
O=C(Nc1nc2ccc3ccccc3c2s1)c1ccc(N2CCCCC2)c([N+](=O)[O-])c1 1.41 µM [inhibitor, partial curve, poor fit]
O=C(NCSc1ccnc(SCNC(=O)c2ccccc2)n1)c1ccccc1 11.2 µM [inhibitor, single point]
Cn1cc(C2=C(c3ccc(Cl)cc3Cl)C(=O)NC2=O)c2ccccc21 35.5 µM [activator, single point]
Cc1ccc(/C=N/Nc2nncn2N)cc1 35.5 µM [inhibitor, single point]
CC1(C)CC(=O)C2=C(C1)OC(N)=C(C#N)C21CCN(C(=O)OCc2ccccc2)CC1 35.5 µM [inhibitor, single point]
CCC1CCCCN1C(=O)CSc1nc2c([nH]c3ccccc32)c(=O)n1C (stereo not given) 15.8 µM [activator, single point]
CN(Cc1ccco1)c1ncnc2ccc(-c3cccc(NS(C)(=O)=O)c3)cc12 7.08 µM [activator, partial curve]
Cc1ccc(CC2C(=O)N(c3ccc(C)cc3)C(=O)C2C)cc1 (stereo not given) 12.6 µM [activator, partial curve]
O=S(=O)(NCCO)c1cccc2cccnc12 22.4 µM [inhibitor, single point]
O=C(NNC(=S)NC1CCCCC1)c1ccccc1Cl 1 µM [inhibitor, full curve, poor fit]
Cc1ccccc1-n1c(=O)cc(NCc2ccc3c(c2)OCO3)[nH]c1=O 35.5 µM [activator, single point]
O=C(Nc1ccc(Cl)cn1)c1ccc([N+](=O)[O-])o1 17.8 µM [inhibitor, single point]
CCCNC(=S)NC1CC2CCCC(C1)N2Cc1ccc(F)cc1 (stereo not given) 2.82 µM [inhibitor, partial curve]
C=CCn1c(CCC(=O)Nc2ccc(C)c(Cl)c2)nnc1SCC(=O)Nc1ccccc1C 35.5 µM [activator, single point]
O=C(COc1ccccc1Cl)Nc1ccc(Cl)cn1 1.12 µM [activator, full curve, poor fit]
Cc1cccc(/C=N/NC(=O)C(C)Nc2cccc3ccccc23)n1 (stereo not given) 35.5 µM [inhibitor, single point]
COc1ccccc1OCCCn1cc(C#N)c2ccccc21 25.1 µM [inhibitor, single point]
C=CCN(c1ccc(C(=O)Nc2cccc([N+](=O)[O-])c2)cc1)S(C)(=O)=O 8.91 µM [activator, partial curve]

Potency, active:
COc1cc(/C=C2/SC(=S)N(CC(=O)Nc3nc4ccccc4s3)C2=O)cc(OC)c1OC 10 µM
CCn1c(O)c(N=NC(=S)NCC2CCCO2)c2ccccc21 (stereo not given) 0.282 µM
CCCCNC(=S)NCc1ccc2c(c1)cc(C)n2C 11.2 µM
O=[N+]([O-])C(=C1Nc2ccccc2N1)C(Cl)=C(Cl)Cl 11.2 µM
Cc1ccc(-c2csc(C3C(N)=NC(S)=C(C#N)C34CCCCC4)n2)cc1 (stereo not given) 5.01 µM
CCN(CC)CCn1c(NC(=O)c2ccc(Cl)cc2)nc2ccccc21 2 µM
O=C(Cc1ccccc1)N/N=C/c1ccc[nH]1 12.6 µM
O=C(CNC(=S)NC(=O)c1cccs1)c1ccccc1 8.91 µM
Clc1cccc(-c2nc(-c3ccccn3)no2)c1 5.01 µM
C(=N\Nc1nc2ccccc2[nH]1)/C1CCCCC1 11.2 µM
COc1ccc(-c2cc(C(F)(F)F)nc(S(C)(=O)=O)n2)cc1 12.6 µM
COc1cc(/C=N/NC(=O)c2cccc([N+](=O)[O-])c2)ccc1OCc1ccccc1 3.16 µM
O=C(O)/C=C/C(=O)c1c(-c2ccccc2)[nH]c2ccccc12 14.1 µM
O=C(CNc1ccc(Br)cc1)NNC1=NCCC1 5.62 µM
CCOc1cc(-c2noc(N)c2C#N)cc(OCC)c1OCC 11.2 µM

Activity change, negative = inhibition, inactive:
COc1ccc(C(CC(=O)O)NS(=O)(=O)c2ccc3c(c2)NC(=O)CO3)cc1 (stereo not given) -7.59%
Cc1nc(SCc2ccc(F)cc2)c2oc3ccccc3c2n1 -3.74%
COc1ccc(C)cc1NC(=O)C(=O)c1cn(CC(=O)N2CCCC2)c2ccccc12 18.5%
CC(=O)c1cccc(NC(=O)C2C3C=CC(C3)C2C(=O)O)c1 (stereo not given) 10.6%
CC(C)c1ccc(N(CC(=O)NC2CCCC2)C(=O)CCC(=O)Nc2ccccn2)cc1 -3.1%
COCCNS(=O)(=O)c1cc(-c2nn(C)c(=O)c3ccccc23)ccc1C -19.8%
COCCNC(=O)C1(CC(C)C)C=CCN1C(C)=O (stereo not given) 31.3%
Cc1c(NC(=O)c2cc(-c3ccc(F)cc3)on2)c(=O)n(-c2ccccc2)n1C 8.98%
CN(C)S(=O)(=O)c1cccc(NC(=O)COC(=O)c2ccc([N+](=O)[O-])o2)c1 -12.6%
CCc1ccc(NC(=O)CO/N=C(\C)c2cc3ccccc3o2)cc1 -6.14% [at 10 µM]
Cc1cc(NC(=O)CCCN2C(=O)c3cccnc3C2=O)no1 3.61%
OCCNc1nc(-c2cccnc2)nc2ccccc12 13.3%
COCCCNC(=O)/C(C#N)=C/c1c(N2CCN(c3ccccc3)CC2)nc2c(C)cccn2c1=O 17%
C=CCOC(=O)C(C(=O)CC)C(NC(=O)OC)c1ccc(F)cc1 (stereo not given) 9.69% [at 10 µM]

Three structures already listed, ordered by formula weight, falling.
Activity change, negative = inhibition, inactive:
COc1ccc(C)cc1NC(=O)C(=O)c1cn(CC(=O)N2CCCC2)c2ccccc12 18.5%
Cc1nc(SCc2ccc(F)cc2)c2oc3ccccc3c2n1 -3.74%
OCCNc1nc(-c2cccnc2)nc2ccccc12 13.3%
